B1: R-spondin3 (Rspo3), from human liver tissue (protein, UniProt Q9BXY4 22-272)
chain: QNASRGRRQRRMHPNVSQGCQGGCATCSDYNGCLSCKPRLFFALERIGMKQIGVCLSSCPSGYYGTRYPDINKCTKCKADCDTCFNKNFCTKCKSGFYLHLGKCLDNCPEGLEANNHTMECVSIVHCEVSEWNPWSPCTKKGKTCGFKRGTETRVREIIQHPSAKGNLCPPTNETRKCTVQRKKCQKGERGKKGRERKRKKPNKGESKEAIPDSKSLESSKEIPEQRENKQQQKKRKVQDKQKSVSVSTVH
B2: ubiquitin specific peptidase 42 (USP42) (protein, UniProt Q9H9J4 1-1324)
chain: MTIVDKASESSDPSAYQNQPGSSEAVSPGDMDAGSASWGAVSSLNDVSNHTLSLGPVPGAVVYSSSSVPDKSKPSPQKDQALGDGIAPPQKVLFPSEKICLKWQQTHRVGAGLQNLGNTCFANAALQCLTYTPPLANYMLSHEHSKTCHAEGFCMMCTMQAHITQALSNPGDVIKPMFVINEMRRIARHFRFGNQEDAHEFLQYTVDAMQKACLNGSNKLDRHTQATTLVCQIFGGYLRSRVKCLNCKGVSDTFDPYLDITLEIKAAQSVNKALEQFVKPEQLDGENSYKCSKCKKMVPASKRFTIHRSSNVLTLSLKRFANFTGGKIAKDVKYPEYLDIRPYMSQPNGEPIVYVLYAVLVHTGFNCHAGHYFCYIKASNGLWYQMNDSIVSTSDIRSVLSQQAYVLFYIRSHDVKNGGELTHPTHSPGQSSPRPVISQRVVTNKQAAPGFIGPQLPSHMIKNPPHLNGTGPLKDTPSSSMSSPNGNSSVNRASPVNASASVQNWSVNRSSVIPEHPKKQKITISIHNKLPVRQCQSQPNLHSNSLENPTKPVPSSTITNSAVQSTSNASTMSVSSKVTKPIPRSESCSQPVMNGKSKLNSSVLVPYGAESSEDSDEESKGLGKENGIGTIVSSHSPGQDAEDEEATPHELQEPMTLNGANSADSDSDPKENGLAPDGASCQGQPALHSENPFAKANGLPGKLMPAPLLSLPEDKILETFRLSNKLKGSTDEMSAPGAERGPPEDRDAEPQPGSPAAESLEEPDAAAGLSSTKKAPPPRDPGTPATKEGAWEAMAVAPEEPPPSAGEDIVGDTAPPDLCDPGSLTGDASPLSQDAKGMIAEGPRDSALAEAPEGLSPAPPARSEEPCEQPLLVHPSGDHARDAQDPSQSLGAPEAAERPPAPVLDMAPAGHPEGDAEPSPGERVEDAAAPKAPGPSPAKEKIGSLRKVDRGHYRSRRERSSSGEPARESRSKTEGHRHRRRRTCPRERDRQDRHAPEHHPGHGDRLSPGERRSLGRCSHHHSRHRSGVELDWVRHHYTEGERGWGREKFYPDRPRWDRCRYYHDRYALYAARDWKPFHGGREHERAGLHERPHKDHNRGRRGCEPARERERHRPSSPRAGAPHALAPHPDRFSHDRTALVAGDNCNLSDRFHEHENGKSRKRRHDSVENSDSHVEKKARRSEQKDPLEEPKAKKHKKSKKKKKSKDKHRDRDSRHQQDSDLSAACSDADLHRHKKKKKKKKRHSRKSEDFVKDSELHLPRVTSLETVAQFRRAQGGFPLSGGPPLEGVGPFREKTKHLRMESRDDRCRLFEYGQGKRRYLELGR
B3: RASA4 (protein, UniProt O43374 1-803)
chain: MAKRSSLYIRIVEGKNLPAKDITGSSDPYCIVKVDNEPIIRTATVWKTLCPFWGEEYQVHLPPTFHAVAFYVMDEDALSRDDVIGKVCLTRDTIASHPKGFSGWAHLTEVDPDEEVQGEIHLRLEVWPGARACRLRCSVLEARDLAPKDRNGTSDPFVRVRYKGRTRETSIVKKSCYPRWNETFEFELQEGAMEALCVEAWDWDLVSRNDFLGKVVIDVQRLRVVQQEEGWFRLQPDQSKSRRHDEGNLGSLQLEVRLRDETVLPSSYYQPLVHLLCHEVKLGMQGPGQLIPLIEETTSTECRQDVATNLLKLFLGQGLAKDFLDLLFQLELSRTSETNTLFRSNSLASKSMESFLKVAGMQYLHGVLGPIINKVFEEKKYVELDPSKVEVKDVGCSGLHRPQTEAEVLEQSAQTLRAHLGALLSALSRSVRACPAVVRATFRQLFRRVRERFPGAQHENVPFIAVTSFLCLRFFSPAIMSPKLFHLRERHADARTSRTLLLLAKAVQNVGNMDTPASRAKEAWMEPLQPTVRQGVAQLKDFITKLVDIEEKDELDLQRTLSLQAPPVKEGPLFIHRTKGKGPLMSSSFKKLYFSLTTEALSFAKTPSSKKSALIKLANIRAAEKVEEKSFGGSHVMQVIYTDDAGRPQTAYLQCKCVNELNQWLSALRKVSINNTGLLGSYHPGVFRGDKWSCCHQKEKTGQGCDKTRSRVTLQEWNDPLDHDLEAQLIYRHLLGVEAMLWERHRELSGGAEAGTVPTSPGKVPEDSLARLLRVLQDLREAHSSSPAGSPPSEPNCLLELQT
B4: RASA2 (protein, UniProt Q15283 1-850)
chain: MAAAAPAAAAASSEAPAASATAEPEAGDQDSREVRVLQSLRGKICEAKNLLPYLGPHKMRDCFCTINLDQEEVYRTQVVEKSLSPFFSEEFYFEIPRTFQYLSFYVYDKNVLQRDLRIGKVAIKKEDLCNHSGKETWFSLQPVDSNSEVQGKVHLELKLNELITENGTVCQQLVVHIKACHGLPLINGQSCDPYATVSLVGPSRNDQKKTKVKKKTSNPQFNEIFYFEVTRSSSYTRKSQFQVEEEDIEKLEIRIDLWNNGNLVQDVFLGEIKVPVNVLRTDSSHQAWYLLQPRDNGNKSSKTDDLGSLRLNICYTEDYVLPSEYYGPLKTLLLKSPDVQPISASAAYILSEICRDKNDAVLPLVRLLLHHDKLVPFATAVAELDLKDTQDANTIFRGNSLATRCLDEMMKIVGGHYLKVTLKPILDEICDSSKSCEIDPIKLKEGDNVENNKENLRYYVDKLFNTIVKSSMSCPTVMCDIFYSLRQMATQRFPNDPHVQYSAVSSFVFLRFFAVAVVSPHTFHLRPHHPDAQTIRTLTLISKTIQTLGSWGSLSKSKSSFKETFMCEFFKMFQEEGYIIAVKKFLDEISSTETKESSGTSEPVHLKEGEMYKRAQGRTRIGKKNFKKRWFCLTSRELTYHKQPGSKDAIYTIPVKNILAVEKLEESSFNKKNMFQVIHTEKPLYVQANNCVEANEWIDVLCRVSRCNQNRLSFYHPSVYLNGNWLCCQETGENTLGCKPCTAGVPADIQIDIDEDRETERIYSLFTLSLLKLQKMEEACGTIAVYQGPQKEPDDYSNFVIEDSVTTFKTIQQIKSIIEKLDEPHEKYRKKRSSSAKYGSKENPIVGKAS
B5: ubiquitin specific peptidase 29 (USP29) (protein, UniProt Q9HBJ7 1-922)
chain: MISLKVCGFIQIWSQKTGMTKLKEALIETVQRQKEIKLVVTFKSGKFIRIFQLSNNIRSVVLRHCKKRQSHLRLTLKNNVFLFIDKLSYRDAKQLNMFLDIIHQNKSQQPMKSDDDWSVFESRNMLKEIDKTSFYSICNKPSYQKMPLFMSKSPTHVKKGILENQGGKGQNTLSSDVQTNEDILKEDNPVPNKKYKTDSLKYIQSNRKNPSSLEDLEKDRDLKLGPSFNTNCNGNPNLDETVLATQTLNAKNGLTSPLEPEHSQGDPRCNKAQVPLDSHSQQLQQGFPNLGNTCYMNAVLQSLFAIPSFADDLLTQGVPWEYIPFEALIMTLTQLLALKDFCSTKIKRELLGNVKKVISAVAEIFSGNMQNDAHEFLGQCLDQLKEDMEKLNATLNTGKECGDENSSPQMHVGSAATKVFVCPVVANFEFELQLSLICKACGHAVLKVEPNNYLSINLHQETKPLPLSIQNSLDLFFKEEELEYNCQMCKQKSCVARHTFSRLSRVLIIHLKRYSFNNAWLLVKNNEQVYIPKSLSLSSYCNESTKPPLPLSSSAPVGKCEVLEVSQEMISEINSPLTPSMKLTSESSDSLVLPVEPDKNADLQRFQRDCGDASQEQHQRDLENGSALESELVHFRDRAIGEKELPVADSLMDQGDISLPVMYEDGGKLISSPDTRLVEVHLQEVPQHPELQKYEKTNTFVEFNFDSVTESTNGFYDCKENRIPEGSQGMAEQLQQCIEESIIDEFLQQAPPPGVRKLDAQEHTEETLNQSTELRLQKADLNHLGALGSDNPGNKNILDAENTRGEAKELTRNVKMGDPLQAYRLISVVSHIGSSPNSGHYISDVYDFQKQAWFTYNDLCVSEISETKMQEARLHSGYIFFYMHNGIFEELLRKAENSRLPSTQAGVIPQGEYEGDSLYRPA
B6: ubiquitin protein ligase E3B (UBE3B) (protein, UniProt Q7Z3V4 1-1068)
chain: MFTLSQTSRAWFIDRARQAREERLVQKERERAAVVIQAHVRSFLCRSRLQRDIRREIDDFFKADDPESTKRSALCIFKIARKLLFLFRIKEDNERFEKLCRSILSSMDAENEPKVWYVSLACSKDLTLLWIQQIKNILWYCCDFLKQLKPEILQDSRLITLYLTMLVTFTDTSTWKILRGKGESLRPAMNHICANIMGHLNQHGFYSVLQILLTRGLARPRPCLSKGTLTAAFSLALRPVIAAQFSDNLIRPFLIHIMSVPALVTHLSTVTPERLTVLESHDMLRKFIIFLRDQDRCRDVCESLEGCHTLCLMGNLLHLGSLSPRVLEEETDGFVSLLTQTLCYCRKYVSQKKSNLTHWHPVLGWFSQSVDYGLNESMHLITKQLQFLWGVPLIRIFFCDILSKKLLESQEPAHAQPASPQNVLPVKSLLKRAFQKSASVRNILRPVGGKRVDSAEVQKVCNICVLYQTSLTTLTQIRLQILTGLTYLDDLLPKLWAFICELGPHGGLKLFLECLNNDTEESKQLLAMLMLFCDCSRHLITILDDIEVYEEQISFKLEELVTISSFLNSFVFKMIWDGIVENAKGETLELFQSVHGWLMVLYERDCRRRFTPEDHWLRKDLKPSVLFQELDRDRKRAQLILQYIPHVIPHKNRVLLFRTMVTKEKEKLGLVETSSASPHVTHITIRRSRMLEDGYEQLRQLSQHAMKGVIRVKFVNDLGVDEAGIDQDGVFKEFLEEIIKRVFDPALNLFKTTSGDERLYPSPTSYIHENYLQLFEFVGKMLGKAVYEGIVVDVPFASFFLSQLLGHHHSVFYSSVDELPSLDSEFYKNLTSIKRYDGDITDLGLTLSYDEDVMGQLVCHELIPGGKTIPVTNENKISYIHLMAHFRMHTQIKNQTAALISGFRSIIKPEWIRMFSTPELQRLISGDNAEIDLEDLKKHTVYYGGFHGSHRVIIWLWDILASDFTPDERAMFLKFVTSCSRPPLLGFAYLKPPFSIRCVEVSDDQDTGDTLGSVLRGFFTIRKREPGGRLPTSSTCFNLLKLPNYSKKSVLREKLRYAISMNTGFELS

These are yes or no findings as the source states them, for the method shown. In cells and extracts the contact can be indirect. These calls come from enrichment with a bait or labelling near it, and not all partners need be listed.

In the assay the target is GST-fused HRAS protein (GST-HRAS) (UniProt P01112). Kind of assay: affinity purification with mass spectrometry; purified GST-HRAS (GST as control) incubated overnight at 4 °C with pre-cleared human HCC tumor or paired normal tissue lysates; glutathione agarose beads 2 h at 4 °C; washed three times with RIPA buffer; SDS-PAGE, 22 gel slices, LC-MS/MS; only the target purified.
Consider B1, for which the binding entry was “binds”. For B2 the value was “binds”. On to B3, for which the binding entry is given as “binds”.

B4: the binding entry is on record as “binds”. Regarding B5, the binding result is listed as “binds”.

Turning to B6, the binding result is on record as “binds”.

Values taken from article PMC6336889.
